# Test results reported in PubChem BioAssay AID192 (DTP/NCI, 2004).
# The list shows only some results of the screen, not a fair sample: it gathers tests that were run many times, whatever their T/C, doses with no T/C, and many T/C values between a quarter and a half above the control. Other doses and runs of a compound stand elsewhere. T/C: endpoint of the treated group in % of that of the vehicle group. Some doses have a count of surviving animals in place of a T/C: the source files T/C as zero there, which appears to mark a toxic dose or a test without result, not a measured value. Some doses without a T/C left all or most animals alive at the check, yet need not have been tolerated: survival well below the control is almost never listed, so the zero probably covers shortened survival too. Survivors were counted at the toxicity check, usually on the fifth day, unless a day is given; later deaths do not show. Schedule codes are those of the source, taken here to give the interval after Q, in days (D) or hours (H), and the number of doses after X. Some entries hold several experiments; the results are listed from low to high. Some structures stand for samples that the source files as different forms (salt, stereo form or complex); doses refer to the form tested. For survival time, this PubChem deposit counts one and a half times the control or more as active, and values a quarter to a half above the control carry no call in these data; other NCI protocols may use other cut-offs. Some T/C values are followed by the survivors on the day toxicity was checked, most often the fifth; without a count, all were alive then.
# System: BDF1 mice, B16 melanoma ip, median survival T/C
# Assay: NCI In Vivo Anticancer Drug Screen. Data for tumor model B16 Melanoma (intraperitoneal) in B6D2F1 (BDF1) mice
# Details: T/C endpoint: median survival time, higher T/C = longer survival
# Protocol: The antitumor activity of compounds was measured in mice bearing transplantable tumors. Survival or tumor size were measured and the results are expressed as the measurement made in the treated group (T) divided by the measurement made in the vehicle treated control group (C). The tumor model used in this assay is B16 Melanoma (intraperitoneal) in B6D2F1 (BDF1) mice
# [1] = dose: 25.0 mg/kg/injection, schedule: Q01DX009 (ip), vehicle: Klucel (hydroxypropylcellulose) (HPC)
# [2] = dose: 50.0 mg/kg/injection, schedule: Q01DX009 (ip), vehicle: Klucel (hydroxypropylcellulose) (HPC)
# [3] = dose: 100.0 mg/kg/injection, schedule: Q01DX009 (ip), vehicle: Klucel (hydroxypropylcellulose) (HPC)
# [4] = dose: 12.5 mg/kg/injection, schedule: Q01DX009 (ip), vehicle: Klucel (hydroxypropylcellulose) (HPC)
# [5] = dose: 200.0 mg/kg/injection, schedule: Q01DX009 (ip), vehicle: Klucel (hydroxypropylcellulose) (HPC)
# [6] = dose: 400.0 mg/kg/injection, schedule: Q01DX009 (ip), vehicle: Klucel (hydroxypropylcellulose) (HPC)
# [7] = dose: 200.0 mg/kg/injection, schedule: Q01DX009 (ip), vehicle: saline
# [8] = dose: 64.0 mg/kg/injection, schedule: Q01DX009 (ip), vehicle: saline with Tween-80
# [9] = dose: 128.0 mg/kg/injection, schedule: Q01DX009 (ip), vehicle: saline with Tween-80
# [10] = dose: 50.0 mg/kg/injection, schedule: Q01DX009 (ip), vehicle: saline with Tween-80
# [11] = dose: 6.25 mg/kg/injection, schedule: Q01DX009 (ip), vehicle: Klucel (hydroxypropylcellulose) (HPC)
# [12] = dose: 50.0 mg/kg/injection, schedule: Q01DX009 (ip), vehicle: saline
# [13] = dose: 24.0 mg/kg/injection, schedule: Q01DX009 (ip), vehicle: saline
smiles,measurement,setting,value
Cc1cc(NCCN(C(C)C)C(C)C)nc(/N=C(\N)Nc2ccc(Cl)c(C(F)(F)F)c2)n1,survivor count,"dose: 20.0 mg/kg/injection, schedule: Q01DX009 (ip), vehicle: Klucel (hydroxypropylcellulose) (HPC)",10 of 10
same,survivor count,"dose: 40.0 mg/kg/injection, schedule: Q01DX009 (ip), vehicle: Klucel (hydroxypropylcellulose) (HPC)",9 of 10
same,survivor count,"dose: 80.0 mg/kg/injection, schedule: Q01DX009 (ip), vehicle: Klucel (hydroxypropylcellulose) (HPC)",8 of 10
O=C1C=C(C2OC(CO)C(O)C2O)C(=O)N1 (configuration not stated),survivor count,"dose: 3.13 mg/kg/injection, schedule: Q01DX009 (ip), vehicle: Klucel (hydroxypropylcellulose) (HPC)",10 of 10
same,survivor count,[1],1 of 10
same,survivor count,[2],0 of 10
same,survivor count,[3],0 of 10
Cc1cc(N(CCOS(C)(=O)=O)CCOS(C)(=O)=O)ccc1C=Nc1ccc(-c2nc(Cc3ccccc3)sc2C)cc1,T/C,[4],128 and 138 % of control
same,T/C,[1],139 % of control
same,survivor count,[2],8 of 10
same,survivor count,[3],1 of 10
same,survivor count,[5],1 of 10 and 10 of 10
same,survivor count,[6],1 of 10 and 10 of 10
CC(=O)NCC1(c2ccccc2)CCN(CCCC(=O)c2ccc(F)cc2)CC1,survivor count,[5],1 of 10
same,survivor count,[7],0 of 10
same,survivor count,"dose: 400.0 mg/kg/injection, schedule: Q01DX009 (ip), vehicle: saline",0 of 10
N=C(N)c1ccc(/C=C/c2ccc(C(=N)N)cc2)cc1,survivor count,[8],8 of 10
same,survivor count,[9],1 of 10
same,survivor count,"dose: 256.0 mg/kg/injection, schedule: Q01DX009 (ip), vehicle: saline with Tween-80",0 of 10
CN(C)CCCN1c2ccccc2Sc2ccccc21,survivor count,"dose: 75.0 mg/kg/injection, schedule: Q01DX009 (ip), vehicle: saline",0 of 10
CCOC(=O)C(Cc1ccc(O)cc1)NP(=O)(OCCCl)OCCCl (configuration not stated),survivor count,"dose: 100.0 mg/kg/injection, schedule: Q04DX003 (ip), vehicle: Klucel (hydroxypropylcellulose) (HPC)",10 of 10
CC(C)Cc1ccc(OC(=O)Nc2ccc(Cl)cc2)cc1,survivor count,[10],9 of 10
same,survivor count,"dose: 100.0 mg/kg/injection, schedule: Q01DX009 (ip), vehicle: saline with Tween-80",9 of 10
CC(=O)O[C@]1(C(C)=O)CC[C@H]2[C@@H]3C=C(Cl)C4=CC(=O)[C@@H]5C[C@@H]5[C@]4(C)[C@H]3CC[C@@]21C,survivor count,[5],10 of 10
same,survivor count,[6],10 of 10
S=C=NCCCCCCCCCCCCN=C=S,survivor count,"dose: 25.0 mg/kg/injection, schedule: Q01DX009 (ip), vehicle: saline with Tween-80",0 of 10
Nc1nc(=S)c2[nH]c(N=Nc3ccc(S(=O)(=O)Nc4ccccn4)cc3)nc2[nH]1,survivor count,[11],10 of 10
same,survivor count,[4],10 of 10
same,survivor count,[1],10 of 10
same,survivor count,[2],10 of 10
same,survivor count,[3],10 of 10
C1OC1CN1CCN(CC2CO2)CC1 (configuration not stated),T/C,"dose: 32.0 mg/kg/injection, schedule: Q01DX009 (ip), vehicle: saline with Tween-80",135 % of control
same,survivor count,[8],6 of 6
same,survivor count,[9],6 of 6
COc1cccc(/C=N\N=C\c2cccc(OC)c2OC)c1OC,survivor count,"dose: 25.0 mg/kg/injection, schedule: Q01DX009 (ip), vehicle: saline",10 of 10
same,survivor count,[12],8 of 10
same,survivor count,"dose: 100.0 mg/kg/injection, schedule: Q01DX009 (ip), vehicle: saline",10 of 10
same,survivor count,[7],9 of 10
O=Nc1c(N=O)c(N=O)c(N=O)c(N=O)c1N=O,survivor count,"dose: 10.0 mg/kg/injection, schedule: Q01DX009 (ip), vehicle: saline with Tween-80",5 of 6
same,survivor count,"dose: 20.0 mg/kg/injection, schedule: Q01DX009 (ip), vehicle: saline with Tween-80",3 of 6
same,survivor count,"dose: 40.0 mg/kg/injection, schedule: Q01DX009 (ip), vehicle: saline with Tween-80",0 of 6
same,survivor count,"dose: 80.0 mg/kg/injection, schedule: Q01DX009 (ip), vehicle: saline with Tween-80",0 of 6
NC(Cn1cc(N(CCCl)CCCl)c(=O)[nH]c1=O)C(=O)O (configuration not stated),T/C,[13],129 % of control
same,survivor count,"dose: 48.0 mg/kg/injection, schedule: Q01DX009 (ip), vehicle: saline",10 of 10
O=C(CCN1CC1)OCCOC(=O)CCN1CC1,T/C,"dose: 6.0 mg/kg/injection, schedule: Q01DX009 (ip), vehicle: saline",132 % of control
same,T/C,"dose: 12.0 mg/kg/injection, schedule: Q01DX009 (ip), vehicle: saline",127 % of control
same,survivor count,[13],10 of 10
CN(C)CCCN=Cc1ccccc1O.CN(C)CCCN=Cc1ccccc1O.[Ni+2],survivor count,"dose: 12.5 mg/kg/injection, schedule: Q04DX003 (ip), vehicle: saline with Tween-80",9 of 10
CCCCCCCC(=O)N/N=C(\CO)[C@]1(O)Cc2c(O)c3c(c(O)c2[C@@H](OC2CC(N)C(O)C(C)O2)C1)C(=O)c1c(OC)cccc1C3=O (some centres not stated),survivor count,"dose: 100.0 mg/kg/injection, schedule: Q01DX001 (ip), vehicle: water",9 of 10 and 10 of 10
same,survivor count,"dose: 200.0 mg/kg/injection, schedule: Q01DX001 (ip), vehicle: water",9 of 10
FC(F)(F)c1ccc2c(c1)N(CCCN1CCN(CCOc3ccccc3)CC1)c1ccccc1S2,T/C,"dose: 0.5 mg/kg/injection, schedule: Q01DX009 (ip), vehicle: saline",125 % of control [9 of 10 alive]
same,T/C,"dose: 1.0 mg/kg/injection, schedule: Q01DX009 (ip), vehicle: saline",134 % of control [9 of 10 alive]
same,survivor count,"dose: 4.0 mg/kg/injection, schedule: Q01DX009 (ip), vehicle: saline",10 of 10
CCN(CCP(c1ccccc1)c1ccccc1)CCP(c1ccccc1)c1ccccc1,survivor count,"dose: 6.25 mg/kg/injection, schedule: Q01DX009 (ip), vehicle: saline with Tween-80",10 of 10
same,survivor count,[10],10 of 10
same,survivor count,"dose: 100.0 mg/kg/injection, schedule: Q04DX003 (ip), vehicle: saline with Tween-80",10 of 10
Cc1ccc(S(=O)(=O)N/N=C(\C(=O)O)c2ccccc2)cc1,survivor count,[2],10 of 10
same,survivor count,[3],10 of 10
same,survivor count,[5],10 of 10
C(=C\c1cnc2ccccc2n1)/c1ccc2c(c1)OCO2,survivor count,"dose: 300.0 mg/kg/injection, schedule: Q01DX009 (ip), vehicle: Klucel (hydroxypropylcellulose) (HPC)",10 of 10
CNc1nc2c(N)ncnc2n1C1OC(CO)C(O)C1O (configuration not stated),survivor count,[12],5 of 10
O=C(O)C1C2CC(O)C(C2)C1C(=O)O (configuration not stated),survivor count,"dose: 400.0 mg/kg/injection, schedule: Q04DX003 (ip), vehicle: saline",10 of 10
O=C(CCCN1CCC(O)(c2cccc(C(F)(F)F)c2)CC1)c1ccc(F)cc1,survivor count,"dose: 0.09 mg/kg/injection, schedule: Q01DX009 (ip), vehicle: Klucel (hydroxypropylcellulose) (HPC)",10 of 10
same,survivor count,"dose: 1.56 mg/kg/injection, schedule: Q01DX009 (ip), vehicle: Klucel (hydroxypropylcellulose) (HPC)",9 of 10
same,survivor count,"dose: 3.12 mg/kg/injection, schedule: Q01DX009 (ip), vehicle: Klucel (hydroxypropylcellulose) (HPC)",9 of 10
same,survivor count,[11],10 of 10
same,survivor count,[4],7 of 10
same,survivor count,"dose: 16.0 mg/kg/injection, schedule: Q01DX009 (ip), vehicle: Klucel (hydroxypropylcellulose) (HPC)",0 of 10
same,survivor count,[1],0 of 10
same,survivor count,"dose: 32.0 mg/kg/injection, schedule: Q01DX009 (ip), vehicle: Klucel (hydroxypropylcellulose) (HPC)",0 of 10
same,survivor count,"dose: 64.0 mg/kg/injection, schedule: Q01DX009 (ip), vehicle: Klucel (hydroxypropylcellulose) (HPC)",0 of 10
CC1CC(C)(O)CC(C(O)CC2CC(=O)NC(=O)C2)C1=O (configuration not stated),survivor count,"dose: 4.08 mg/kg/injection, schedule: Q04DX003 (ip), vehicle: saline",8 of 8
